# From US20030087830A1, “Low molecular weight components of cartilage, complexes of metals with amino acids, DI-peptides and analogs thereof; processes for preparation and therapeutic uses thereof” (priority 2001, published 2003)
# Some of these results come from one statement about several compounds together.
# Columns and labels:
# [1] = system: Endothelial cells (HUVEC, BAEC); assay: Endothelial cell proliferation; format: cell-based, human / bovine; conditions: for EC50: 48 hours, copper equivalent, NA = less than 50% at 1.25 mM copper equivalent, read-out: EC proliferation (EC50 mM)
# Procedure: Endothelial and tumor cell proliferation assays were performed to determine the ability of test samples to inhibit endothelial cell proliferation (antiangiogenic activity), normal cell proliferation,and tumor cell proliferation.
# Endothelial cells (Human umbilical vein endothelial cells (HUVEC), bovine aortic endothelial cells (BAEC)), skeletal muscle cells, human dermal fibroblasts (all from Clonetics, Walkersville, Md.) were respectively maintained in EBM-2, MDEM, SKGM and FGFM-2 complete media according to manufacturer's instructions. Tumor rat glioblastoma cell line (C6) was maintained in DMEM (Sigma, Oaksville, Ontario) supplemented with 10% fetal calf serum (FCS) and antibiotics in 5% CO2. Briefly, cells seeded in 96-well sterile tissue culture dishes were treated with increasing concentrations of different test samples for a period of 48 hours at 37° C. Cell number was then evaluated by a calorimetric assay using the cell proliferation reagent tetrazolium salt and the fluorimetric assay using DNA dye (Hoescht) according to the procedure established by the manufacturer (Boehringer Mannhein). The conversion of these tetrazolium salts into formazan occurs only in metabolically active cells. The percentage of cell inhibition was determined by comparison to untreated cells.
# According to the endothelial cell proliferation assay, the relative effectiveness of two compounds is compared by reference to the EC50 thereof. The EC50 is the concentration of compound at which the number of endothelial cells is reduced by 50% as compared to control. The efficacy of the test samples in EVT is established by the percent of eggs with altered angiogenesis at a given inhibitor dose of 0.6 mg of copper equivalent (see FIG. 6 for examples). A comparison of the antiangiogenic activity of the compounds of the present invention with divalent metal salts (CuCl2, MgCl2, ZnCl2, CoCl2) and uncoupled alpha-amino acids, alpha-imino acids, dipeptides, and nitrogenated molecules comprising a carboxylic acid group, such as creatine, is provided to illustrate that the formation of the amino acid-copper complex gives rise to complexes having antiangiogenic activity.
# [2] = system: blood vessel formation in the vitelline membrane of chick embryo; assay: Embryonic Vascularization Test (EVT); format: in vivo; conditions: 0.6 mg copper equivalent; percent of embryos with affected blood vessel formation, 24 hours after disc deposition
# Procedure: The Embryonic Vascularization Test (EVT) was performed to determine the ability of test samples to inhibit the formation of new blood vessels (antiangiogenic activity).
# The normal development of a chick embryo involves the formation of an external vascular system located in the vitelline membrane which carries nutrients from the vitellus (yolk) to the developing embryo. When placed onto the vitelline membrane, antiangiogenic substances can inhibit the blood vessel formation that occurs in the vitelline membrane. Briefly, methylcellulose discs (an inert solid and transparent matrix) containing different test samples were placed on the external border of the vascular perimeter of the vitelline membrane, where the angiogenic process occurs. Vascularization was assessed 24 hours after disc deposition, and results were expressed as the percent of embryos in which blood vessel formation was affected. The blood vessel formation was considered affected when its growing path was either deviated, or diminished or when there was no growth observed beyond the disc as compared to the negative control. The results are expressed as 0, +, and ++ where 0 is for a lower response than 25 percent of the eggs; + is for a response between 25 and 50 percent; and ++ is for an antiangiogenic response observed in more than 50 percent of the eggs. […]
# [3] = system: bFGF-stimulated blood vessel formation in Matrigel; assay: Matrigel in vivo angiogenesis assay; parameters: species or system C57B1/6 mice; conditions: free amino acids, dose not given
# Procedure: The Matrigel™ in vivo assay was performed to determine the ability of test samples to inhibit blood vessel formation (antiangiogenic activity) and to establish their bioavailability in vivo.
# Briefly, liquid Matrigel™ (Becton Dickinson, Bedford, Mass.) was maintained at 4° C. and mixed thoroughly for at least 3 hours with 1,500 ng/ml basic fibroblast growth factor (bFGF) (R&D Systems, Minneapolis, Minn.) used as the primary angiogenic stimulus. The mixture (0.5 ml) was injected subcutaneously into the ventral midline of C57B1/6 mice, and treatment with different test samples or saline solution was initiated the same day. Additional animals were also injected with Matrigel™ containing no bFGF to serve as baseline controls. The animals were treated daily for a 10 day period (intra-peritonealy, 0.2 ml of each dose). At day 11, animals were injected with FITC-dextran 20 min prior to euthanizing treated mice. Matrigel™ gels were removed along with underlying peritoneum and prepared for FITC-dextran detection by fluorimetry. The concentration of FITC-dextran in the gels was calculated from a known concentration of FITC-dextran using a standard curve. The FITC-dextran content of the gels from compound-treated animals and controls was expressed as a percent of the positive bFGF-treated controls after the baseline control of FITC-dextran levels were subtracted from all groups.
compound,measurement,setting,value
"N[C@@H](Cc1c[nH]cn1)C(=O)[O-].N[C@@H](Cc1c[nH]cn1)C(=O)[O-].[Cu+2] [Compound 10, L-His:Cu:L-His]",EC50,[1],> 0.5 mM
same,EVT % of inhibition,[2],< 20%
"NC(=O)CC[C@H](N)C(=O)[O-].NC(=O)CC[C@H](N)C(=O)[O-].[Cu+2] [Compound 11, L-Gln:Cu:L-Gln]",EC50,[1],> 0.5 mM
same,EVT % of inhibition,[2],< 20%
"N[C@@H](CC(=O)O)C(=O)O [Free Asp, aspartic acid, reference compound]",Matrigel in vivo % inhibition,[3],<15%
"N[C@@H](Cc1c[nH]cn1)C(=O)O [Free His, histidine, reference compound]",Matrigel in vivo % inhibition,[3],<15%
"C[C@@H](O)[C@H](N)C(=O)O [Free Thr, threonine, reference compound]",Matrigel in vivo % inhibition,[3],<15%
"N[C@@H](CCC(=O)O)C(=O)O [Free glu, glutamic acid, reference compound]",Matrigel in vivo % inhibition,[3],<15%
L-Asp-Co-L-Asp [Compound 30],Endothelial cell proliferation activity (in words),[1],mostly inactive
L-Asp-Zn-L-Asp [Compound 32],Endothelial cell proliferation activity (in words),[1],mostly inactive
